PubChem BioAssay AID1259424 | University of Nebraska Medical Center, 2018
Assay: 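Rank knockdowns across the genome by resemblance to the KSR1 depletion profile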 (primary screen). Cell system: human HCT116 colon cancer cells. Knock-down reagent: siRNA pool against human genes, 50 nM. Measurement: 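Six signature mRNAs by branched-DNA multiplex assay, scaled to two housekeeping genes and non-targeting median, log2; matched to mean KSR1 knockdown profile by Pearson correlation and euclidean distance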. Direction: mean correlation with KSR1 profile: higher = expression change more like KSR1 knockdown.
The whole screen tested about 14,000 reagents; below is a random part of them. 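Higher correlation or smaller distance means closer resemblance to KSR1 loss; control wells, including KSR1 knockdowns, recur on many plates.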 Further read-outs or replicates are left out here. Not given: the time to read-out.

Depletion of CPLANE1 resulted in: mean correlation with KSR1 profile -0.259.
ERCC6L scored mean correlation with KSR1 profile -0.519.
ABHD14A scored mean correlation with KSR1 profile -0.57.
OCA2 gave mean correlation with KSR1 profile -0.287.
After knock-down of GABPA, the screen gave mean correlation with KSR1 profile 0.661.
BMPR2 gave mean correlation with KSR1 profile 0.461.
Depletion of LMNA gave: mean correlation with KSR1 profile -0.769.
With knock-down of EPB41, the record shows mean correlation with KSR1 profile 0.709.
ZNF195 showed mean correlation with KSR1 profile -0.233.
For IL1RAPL1, the entry reads mean correlation with KSR1 profile -0.237.
After knock-down of ABCA13, the screen gave mean correlation with KSR1 profile 0.626.
After knock-down of PIKFYVE, the screen gave mean correlation with KSR1 profile 0.301.
Silencing of MYBPC3 gave: mean correlation with KSR1 profile 0.348.
Knock-down of SLC71A1 resulted in: mean correlation with KSR1 profile -0.0071.

3 of these entries in another layout.
IL1RAPL1
- mean correlation with KSR1 profile: -0.237

ABCA13
- mean correlation with KSR1 profile: 0.626

PIKFYVE
- mean correlation with KSR1 profile: 0.301

The list goes on:
Knock-down of RPS3A came out at: mean correlation with KSR1 profile -0.552.
Against OBSL1 the deposit lists mean correlation with KSR1 profile 0.378.
CSRNP1 showed mean correlation with KSR1 profile 0.0885.
For BAG4, the values are mean correlation with KSR1 profile -0.463.
Against PRSS16 the deposit lists mean correlation with KSR1 profile 0.275.
Knock-down of DOP1A resulted in: mean correlation with KSR1 profile -0.182.
Against PCTP, the values are mean correlation with KSR1 profile -0.458.
PTDSS1 showed mean correlation with KSR1 profile 0.524.
Knock-down of C1orf35 resulted in: mean correlation with KSR1 profile -0.18.
Knock-down of IQSEC2 gave: mean correlation with KSR1 profile -0.135.
For TRAF3IP2 the deposit lists mean correlation with KSR1 profile 0.186.
After knock-down of ZSCAN5A, the screen gave mean correlation with KSR1 profile 0.405.
PTBP3 showed mean correlation with KSR1 profile -0.193.
Depletion of TSR1 resulted in: mean correlation with KSR1 profile 0.024.
